Measurements reported in patent US20090175796A1.
Changes are numbered by the printed parent chain. These are yes or no findings as the source states them, for the method shown. Some results given as binding are weak or reduced against the parent protein; the word gives no strength.

Chains of the proteins cited; added tags and fusions are not shown.
UniProt Q53GD3: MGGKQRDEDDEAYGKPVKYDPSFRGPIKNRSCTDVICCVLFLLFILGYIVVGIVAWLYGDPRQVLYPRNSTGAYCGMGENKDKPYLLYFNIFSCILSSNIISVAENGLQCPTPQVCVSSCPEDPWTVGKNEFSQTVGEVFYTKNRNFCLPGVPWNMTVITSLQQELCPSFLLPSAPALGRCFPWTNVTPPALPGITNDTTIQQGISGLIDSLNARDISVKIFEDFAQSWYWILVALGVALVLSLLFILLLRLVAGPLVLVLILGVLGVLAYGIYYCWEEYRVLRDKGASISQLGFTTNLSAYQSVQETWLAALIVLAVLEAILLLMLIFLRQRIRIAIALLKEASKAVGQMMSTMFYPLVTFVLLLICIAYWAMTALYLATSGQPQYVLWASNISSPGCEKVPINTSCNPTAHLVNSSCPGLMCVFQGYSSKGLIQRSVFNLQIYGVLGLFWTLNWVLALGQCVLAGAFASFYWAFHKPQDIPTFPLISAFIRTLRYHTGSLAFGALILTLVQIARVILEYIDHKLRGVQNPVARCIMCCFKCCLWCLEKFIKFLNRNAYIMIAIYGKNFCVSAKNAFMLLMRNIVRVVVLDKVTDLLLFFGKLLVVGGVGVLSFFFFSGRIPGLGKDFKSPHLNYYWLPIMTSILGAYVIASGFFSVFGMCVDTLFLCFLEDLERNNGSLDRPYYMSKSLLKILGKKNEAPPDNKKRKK

B1: Ha5-1(5)1 (antibody, V domains shown)
VH: QVQLVESGGGVVQPGRSLRLSCGASGFTFSSYGMHWVRQAPGKGLEWVAVMSYDGSKKYYTDSVKGRFTISRDNSKNTLYLQMNSLRVEDTAVYYCARDGGDYVRYYYYGMDVWGQGTTVTVSS
VL: DIQMTQSPSSLSASVGDRVTITCRARQGITYHLAWYQQRPGKVPKLLIYDTSSLQSGVPSRFSGSGSGTDFTLTISSLQPEDVATYYCQRFNSAPLTFGGGTKVEIK
B2: Ha5-7acd13.1 (antibody, V domains shown)
VH: QVQLQESGPGLVKPSETLSLTCTVSGGSISSYYWSWIRQPPGKGLEWIGYIYYSGSTNYNPSLKSRVTISVDTSKNQFSLKLSSVTAADTAVYYCANTYYYGSGYGMDVWGQGTTVTVSS
VL: DIVMTQSPLSLPVTPGEPASISCRSSQSLLHSTGHNYLDWYLQKPGQSPQLLIYLGSIRASGVPDRFSGSGSGTDFTLKISRVEAEDVGVYYCMQALQTITFGQGTRLEIK
B3: Ha5-7acd5.1.1 (antibody, V domains shown)
VH: B2 VH
VL: B2 VL
B4: Ha5-7acd7.1.1 (antibody, V domains shown)
VH: QVQLQESGPGLVKPSETLSLTCTVSGGSVSSGGYYWSWIRQPPGKGLEWIGYIYYSGGTNYNPSLKSRVTISVDTSKNQFSLKLTSVTAADTAVYYCARESGYCTNVACFPDAFDIWGQGTMVTVSS
VL: DVVMTQSPFSLPVTPGEPASISCRSSQSLLHSNGFNFLDWYLQKPGQSPQLLIYLGSIRASGVPDRFSGSGSGTDFTLKISRVEAEDVGVYYCMQALQTPLTFGGGTRVEIK
B5: Ha5-8ac4.1 (antibody, V domains shown)
VH: QVQLQESGPGLVKPSETLSLTCTVSGGSISRYYWSWIRQPAGKGLERIGRIYTSGSTDYNPSLKSRVTMSVDTSKNQFSLKLRSVTAADTAVYYCARDLYSNGYWYFDLWGRGTLVTVSS
VL: QSVLTQPPSVSGAPGQRVTISCTGSSSNIGAGYDVHWYQQLPGTAPKLLIYGNSNRPSGVPDRFSGSKSGTSASLAITGLQAEDEADYYCQSYDSSLSGVVFGGGTKLTVL
B6: Ha5-1(5)2.1 (antibody, V domains shown)
VH: B1 VH with G23A, Y59F, V88A, Y107H
VL: DIQMTQSPSTLSASIGDRVTITCRASQGISYYLAWYQQKPGKIPKLLIYDTSSLQSGVPSRFSGSRSGTDLSLTISSLQPEDVATYYCQRYDSAPLTFGGGTKVEIK
B7: Ha5-3(3,5)37.1 (antibody, V domains shown)
VH: QVQLQESGPGLVKPSETLSLTCTVSGGSISSYYWSWIRQPPGKGLEWIGYIYYSGSTNYNPSLKSRVTISVDTSKNQFSLKLNSVTAADTAVYYCARGYYYGSESPYGMDVWGQGTTVTVSS
VL: DIVMTQSPLSLPVTPGEPASISCRSSQSLLHSNGHNYLDWYLQKPGQSPHLLIYLGSNRDSGVPDRFSGSGSGTDFTLKISRVEAEDVGVYYCMQALQIPCSFGQGTKLEIK
B8: Ha5-7be31.1 (antibody, V domains shown)
VH: QVQLQESGPGLVKPSETLSLTCTVSGGSISSYYWSWIRQPPGKGLEWIGYIYYSGSTNYNPSLKSRVTISVDTSKNQFSLKLSSVTAADTAVYYCARGYYYGAGSYGMDVWGQGTTVTVSS
VL: B4 VL with V2I, F9L, N33T, F37Y, A85T, A96T, L101I, G105Q, V109L
B9: Ha5-7acd2.1 (antibody, V domains shown)
VH: B2 VH
VL: B2 VL

Experiments:
[1] = target: 24P4C12 protein (human) (human) (UniProt Q53GD3); experiment: FACS surface staining (FIG. 6)
[2] = target: 24P4C12 protein (human) (human) (UniProt Q53GD3); experiment: FACS surface staining of cell lines, 10 ug/ml MAb, anti-human IgG-PE; open histogram MAb, solid histogram irrelevant control MAb

Binder | binding [1] | binding [2]
B1 | binds | binds
B2 | binds | binds
B3 | binds | binds
B4 | binds | binds
B5 | binds | binds
B6 | binds | binds
B7 | binds | binds
B8 | binds | binds
B9 | binds | binds
